## Results of single-concentration screens

The values are deposited in ChEMBL (CHEMBL3988442, “University of Dundee, Small-Polar-MMV Screening Library” (2021)).

Each number is a percent effect as filed.
The controls that fix the scale are not given in the record; negative values are as filed.
The compounds are a random part of those screened.
Two or more numbers in one place are separate tests of the same structure; such repeats can differ widely.

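Whole-cell growth test on Mycobacterium tuberculosis, read after 3 days in glucose-containing 7H9 medium; the read-out is not stated. Compounds at 50 µM. Higher reads as more growth inhibition (inferred: compounds with an IC50 in retests scored well above the rest). About 69,000 compounds were tested under these conditions; 1.1% (about 760) showed 50% or more at least once.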

SMILES,effect
CCCc1n[nH]c(C2CN(CCNC3CCCCC3)CCO2)n1 (stereo not given),-16.15%
O=S(=O)(C1CC1)N1CCOC2(COCCN(c3ncccn3)C2)C1 (stereo not given),-17.96%
CCCC(=O)NCC(=O)NC(c1ccc(Cl)cc1)C(F)(F)F (stereo not given),0.02352% and -5.343%
CNC(=O)C1CN(C(=O)c2cccnc2)CCN(S(C)(=O)=O)C1 (stereo not given),-3.375%
O=c1[nH]c(-c2ccc(Cl)cc2)nc2c1CCNC2,-45.45%
COc1ccc(C2CCCN2Cc2nc3c(cnn3C)c(=O)[nH]2)cc1 (stereo not given),-0.1219% and -31.47%
O=C(O)C(F)(F)F.O=C(O)C(F)(F)F.[H][C@@]12CCN(Cc3ccsc3)C[C@]1([H])[C@@H](CN(C)Cc1ccco1)OC2,0.2956% and 14.23%
CCc1oc2ccc(NS(=O)(=O)CC)cc2c1C(=O)OC,0.6471% and -29.7%
CN(CC(=O)N(CCC#N)c1ccccc1)C1CCc2ccccc21 (stereo not given),-2.477%
Cc1cnn(CC2CCCN2CC(=O)Nc2nc(C)cs2)c1 (stereo not given),24.21%
CCN(CCNCc1cccc(C#N)c1)C1CC1,-4.068% and 6.13%
Cc1nnc(NC(=O)CN2CCOC(Cn3cccn3)C2)s1 (stereo not given),30.34%
CC1(C)Cc2cc(-c3cncn3CCNC3CCS(=O)(=O)C3)ccc2O1.Cl (stereo not given),14.27%
Cn1nc2c(cc1=O)CN(Cc1nc(C3CC3)no1)CC2,-18.08%
CCc1nc2n(n1)CC(NCc1ccnc(-c3ccccc3)n1)CC2 (stereo not given),2.075%
Cc1nc(C)n(CC2CCCN2CC(=O)Nc2cccnc2)n1 (stereo not given),-50.41%
CC(NC(=O)N(C)CCCOc1ccc(F)cc1)c1nncn1C (stereo not given),-31.44%
Cc1occc1C(=O)Nc1cc(N2CCNC2=O)ccc1Cl,-30.46%
O=C(C1CCC1)N1CCCC(c2cccc(-n3ccnc3)n2)C1 (stereo not given),16.52%
Cc1nc2c(c(NCC3Cc4ccccc4CN3C)n1)CCNCC2 (stereo not given),21.29%
COc1ccccc1C(C)(C)NC(=O)c1cc(NC(C)=O)ccc1F,4.206%
[H][C@@]12CCN(C(=O)c3cccc(C)n3)C[C@@]1([H])O[C@H](C)C2,-8.65%
CCCOC1CCCN(C(=O)c2cc(CN(CC)CC)c(CC)o2)C1 (stereo not given),-18.87% and -0.7104%
CCO[C@@H]1CCN(C(=O)N(C)C)[C@@H]1Cc1cnn(C)c1,-5.405%
CC(NC(=O)OC(C)(C)C)c1nnc(S(=O)(=O)Cc2ccccc2Cl)o1 (stereo not given),6.56%
CC(C)(C)C1CCC(O)(CNC(=O)CCS(C)(=O)=O)CC1 (stereo not given),16.61%
O=C(O)c1ccc(S(=O)(=O)Nc2ccc(Cl)c(F)c2)c(F)c1,27.02%
CCc1noc(C(C)N2CCC(C)CC2)n1 (stereo not given),14.07%
Cc1cnn(CC2CCCCN2CC(=O)NCc2ccccn2)c1 (stereo not given),6.798% and 1.831%
Cc1ccc(CC(=O)NCC(O)c2cccc(C(F)(F)F)c2)cn1 (stereo not given),-2.239%
Cn1cc(C2(C)CN(Cc3ccc(N4CCCC4)nc3)CCO2)cn1 (stereo not given),-13% and -1.56%
CN(Cc1cccc(C#N)c1)S(=O)(=O)N1CCOCC1,-12.3%
O=C(N[C@@H]1CN(Cc2ccc(F)cc2)C[C@H]1O)c1cscn1,14.76%
COc1ccc(CCNC(=O)Nc2cc(C)nn2C)cc1,-9.844%
Cc1nc(C2CCCN(c3ncc(Br)cn3)C2)no1 (stereo not given),-19.05%
O=C(O)C(F)(F)F.[H][C@@]12CCN(Cc3ccco3)C[C@]1(C(=O)NC(C)C)CCO2,-18.82%
Cc1cccc(N2CC(c3nnc(N)s3)CC2=O)c1 (stereo not given),0.4602%
O=C(NCC1CN(c2ncccn2)Cc2nccn2C1)c1cccnc1.O=C(O)C(F)(F)F (stereo not given),8.468% and -0.1169%
Cc1cc(N2CCC(O)(C(=O)O)CC2)nc2ccccc12,-4.946% and -0.7402%
CC(=O)N1CCCn2nc(CNS(=O)(=O)N3CCC(C)CC3)cc2C1,-5.863%
CC[C@H](C)[C@H](N)C(=O)Nc1nc(-c2cnc(N(C)CCO)nc2)cs1,23.92%
NC(=O)C1CCN(C(=O)NC(Cc2ccccc2)C(F)(F)F)CC1 (stereo not given),7.305%
O=C(NCCCOC1CCCCC1)C1NCCc2[nH]cnc21 (stereo not given),-19.6%
COc1ccc(C(=O)C2CCCN(Cc3cnn(C)c3C)C2)c(OC)c1 (stereo not given),4.367%
O=C(O)C(F)(F)F.[H][C@]12CCC(=O)N(c3cccnc3)[C@@]1([H])CCN2C(=O)Cc1cccs1,-26.76%
c1ccc(OCC2CC3(CCN(Cc4ccncc4)CC3)CO2)nc1 (stereo not given),-3.515%
COc1ccc(C(=O)N2CCOC(Cc3cccc(C(F)(F)F)c3)C2)o1 (stereo not given),73.12% and 62.47%
O=C1N(c2ccccc2)Cc2n[nH]c(=O)n21,-8.843%
CC(C)CN1CCC2(C1)CN(S(=O)(=O)c1cn(C)cn1)C2.O=C(O)C(F)(F)F.O=C(O)C(F)(F)F,-27.41%
Cn1cc(C(=O)N2CCCC(Cc3cncc4ccccc34)C2)cn1 (stereo not given),-5.725%
CC(C)c1cc(NC(=O)CN2CCC(N3CCCCC3)CC2)on1,4.319%
c1cncc(O[C@H]2COCCN(CC3CC3)C2)c1,-4.8% and 24.91%
CCOCC1CN(Cc2ccc(F)cc2)Cc2nn(C)cc21.O=C(O)C(F)(F)F (stereo not given),-13.7%
CCOC(=O)C1CCN(C(=O)CN2CCCC2Cc2ccccc2)CC1 (stereo not given),7.215% and 22.22%
Cc1ccc(CCC(=O)N2CCCC(c3cc(C(N)=O)[nH]n3)C2)cc1 (stereo not given),-8.961%
CC(C)c1nccn1C(C)C(=O)NC1Cc2ccccc2C1 (stereo not given),6.221%
O=C(c1csnn1)N1CCCC(n2cncn2)C1 (stereo not given),6.094%
CCc1cc(NC(=O)c2cccc(OCC(F)(F)F)n2)[nH]n1,50.06%
[H][C@@]12CN(C(=O)NC)C[C@]1(C(=O)NCC1CC1)CCCN2c1ncccn1,6.178%
O=C1N(CC2CC2)C(c2cncs2)NC12CCCC2 (stereo not given),15.45%